Data as given in PubChem BioAssay AID1159578 (Peter MacCallum Cancer Centre, 2015).
Test: 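Genome-wide hunt for genes controlling movement of lymphatic endothelial cells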 (primary screen). Cell system: human lymphatic endothelial cells. Reagent: siRNA pool against human genes, 40 nM. Duration: 48 h after transfection. Measurement: 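High-content imaging of dye-stained cells in a scratch assay measures filled wound area and nuclei per well; duplicate means given as ratio to mock and robust z-score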. Direction: migration robust z-score: higher = faster migration into the scratch; migration relative to mock: higher = more scratch area covered than mock; nuclei per well: higher = more cells in the well. Active means: 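Migration changed when robust z exceeds 2 or falls below -2 and mean nuclei number is at least 3300; otherwise not called changed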. Meaning of the calls: active = migration changed; inactive = no migration change, or too few cells.
Here is an unselected part of about 18,000 reagents tested. About 1,030 of all reagents (5.7%) count as active. 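Inactive calls also include pools with fewer than 3300 nuclei, whose migration was not assessed.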 Raw values vary from plate to plate and are shown uncorrected. The numbers tell different reagents against one gene apart. No sequences are given here.

| target gene | reagent | migration robust z-score | migration class with cell-count check | migration relative to mock | nuclei per well, duplicate mean | outcome |
| --- | --- | --- | --- | --- | --- | --- |
| CLN5 | 1 | 0.8 | migration z between -2 and 2; enough cells | 1.09 | 5981 | inactive |
| MEAK7 | 1 | -0.01 | migration z between -2 and 2; enough cells | 0.88 | 5670 | inactive |
| MMP21 | 1 | -1.35 | migration z between -2 and 2; enough cells | 0.55 | 5558 | inactive |
| KLC2 | 1 | 0.4 | migration z between -2 and 2; enough cells | 0.99 | 5943 | inactive |
| TFDP1 | 1 | 0.49 | migration z between -2 and 2; enough cells | 0.9 | 4478 | inactive |
| CTSL3P | 1 | 0.96 | migration z between -2 and 2; enough cells | 1.14 | 5114 | inactive |
| IRF3 | 1 | -0.55 | migration z between -2 and 2; enough cells | 0.7 | 3552 | inactive |
| STX3 | 1 | 0.1 | migration z between -2 and 2; enough cells | 0.82 | 5426 | inactive |
| DAPK3 | 1 | -0.52 | migration z between -2 and 2; enough cells | 0.7 | 4579 | inactive |
| DVL1 | 1 | 0.94 | migration z between -2 and 2; enough cells | 1.13 | 6886 | inactive |
| ARHGAP27 | 1 | -0.44 | migration z between -2 and 2; enough cells | 0.77 | 7410 | inactive |
| ARHGAP27 | 2 | 1.58 | migration z between -2 and 2; enough cells | 1.29 | 5222 | inactive |
| DCPH1 | 1 | -0.22 | migration z between -2 and 2; enough cells | 0.83 | 5082 | inactive |
| EN1 | 1 | 1.34 | migration z between -2 and 2; enough cells | 1.06 | 5848 | inactive |
| DNAJA2 | 1 | 1.35 | migration z between -2 and 2; enough cells | 1.06 | 5916 | inactive |
| SERPINB12 | 1 | -0.26 | migration z between -2 and 2; enough cells | 0.76 | 5555 | inactive |
| TMEM38B | 1 | 0.67 | migration z between -2 and 2; enough cells | 1.06 | 5741 | inactive |
| LRFN2 | 1 | -0.78 | migration z between -2 and 2; enough cells | 0.69 | 4780 | inactive |
| UBE3C | 1 | 1.61 | migration z between -2 and 2; enough cells | 1.11 | 5274 | inactive |
| AAMDC | 1 | -0.08 | migration z between -2 and 2; enough cells | 0.86 | 5812 | inactive |
| GEMIN8 | 1 | -0.14 | migration z between -2 and 2; enough cells | 0.85 | 5922 | inactive |
| RPRD2 | 1 | 0.12 | migration z between -2 and 2; enough cells | 0.92 | 5841 | inactive |
| TEK | 1 | -2.62 | migration z below -2; enough cells | 0.3 | 3481 | active |
| FKBP2 | 1 | -0.26 | migration z between -2 and 2; enough cells | 0.76 | 6290 | inactive |
| TCP11 | 1 | -0.26 | migration z between -2 and 2; enough cells | 0.82 | 6066 | inactive |
| TEPSIN | 1 | 2.3 | migration z above 2; enough cells | 1.48 | 5548 | active |
| SOX4 | 1 | -0.72 | migration z between -2 and 2; enough cells | 0.66 | 5928 | inactive |
| DGAT2 | 1 | -0.47 | migration z between -2 and 2; enough cells | 0.72 | 4280 | inactive |
| MAN1C1 | 1 | -0.68 | migration z between -2 and 2; enough cells | 0.68 | 5370 | inactive |
| ARGLU1 | 1 | 2.23 | migration z above 2; enough cells | 1.46 | 6629 | active |
| OPALIN | 1 | -0.06 | migration z between -2 and 2; enough cells | 0.87 | 5408 | inactive |
| HOXC12 | 1 | -0.38 | migration z between -2 and 2; enough cells | 0.79 | 4363 | inactive |
| CD226 | 1 | -1.76 | migration z between -2 and 2; enough cells | 0.43 | 5339 | inactive |
| UBTD2 | 1 | 2.88 | migration z above 2; enough cells | 1.63 | 5882 | active |
| SNAPC4 | 1 | -1.03 | migration z between -2 and 2; enough cells | 0.62 | 3760 | inactive |
| PLXNA3 | 1 | 0 | migration z between -2 and 2; enough cells | 0.8 | 5943 | inactive |
| LRRC27 | 1 | -0.49 | migration z between -2 and 2; enough cells | 0.76 | 5493 | inactive |
| ARSK | 1 | -0.78 | migration z between -2 and 2; enough cells | 0.66 | 4901 | inactive |
| AP5Z1 | 1 | -0.37 | migration z between -2 and 2; enough cells | 0.79 | 6155 | inactive |
| CACNA2D4 | 1 | -0.56 | migration z between -2 and 2; enough cells | 0.74 | 5352 | inactive |
| GOLGA5 | 1 | 1.12 | migration z between -2 and 2; enough cells | 1.02 | 5821 | inactive |
| PVRIG | 1 | 0.44 | migration z between -2 and 2; enough cells | 1 | 6188 | inactive |
| DHCR7 | 1 | 0.18 | migration z between -2 and 2; enough cells | 0.84 | 4399 | inactive |
| PDZRN3 | 1 | -0.05 | migration z between -2 and 2; enough cells | 0.8 | 5726 | inactive |
| LAYN | 1 | -2.35 | migration z below -2; enough cells | 0.28 | 6580 | active |
| CCL16 | 1 | 1.48 | migration z between -2 and 2; enough cells | 1.27 | 6799 | inactive |
| BTN3A2 | 1 | -1.49 | migration z between -2 and 2; enough cells | 0.5 | 5026 | inactive |
| SATB1 | 1 | -1.08 | migration z between -2 and 2; enough cells | 0.6 | 5517 | inactive |
| UQCC2 | 1 | 0.62 | migration z between -2 and 2; enough cells | 1.04 | 5036 | inactive |
| PRKY | 1 | 0.46 | migration z between -2 and 2; enough cells | 0.9 | 5514 | inactive |
| CACNA1S | 1 | -0.26 | migration z between -2 and 2; enough cells | 0.76 | 5026 | inactive |
| MLANA | 1 | -0.46 | migration z between -2 and 2; enough cells | 0.77 | 5942 | inactive |
| TGM3 | 1 | -0.54 | migration z between -2 and 2; enough cells | 0.7 | 5056 | inactive |
| NFIL3 | 1 | 0.73 | migration z between -2 and 2; enough cells | 0.94 | 5608 | inactive |
| ZIC1 | 1 | -1.3 | migration z between -2 and 2; enough cells | 0.55 | 6394 | inactive |
| TTLL8 | 1 | 0.12 | migration z between -2 and 2; enough cells | 0.91 | 6585 | inactive |
| COL2A1 | 1 | 2.68 | migration z above 2; enough cells | 1.58 | 5876 | active |

Part of the list above, showing only “migration relative to mock”:
SATB1: 0.6
UQCC2: 1.04
PRKY: 0.9
CACNA1S: 0.76
